The source of these data is paper PMC2774517.

In this assay the target is GST-CAPN3, exon 6 deletion variant (Δ6) of Capn3 (mouse). Kind of assay: pull-down; GST fusion (or GST) bound to GST sepharose beads from cleared E. coli lysate and washed; IM2 mouse myoblast lysate (buffer B: 50 mM Tris-HCl pH 7.5, 150 mM NaCl, 0.2% Triton X-100; pre-treated with GST sepharose beads) added, overnight at 4°C; beads washed 5x; immunoblot with anti-CAPN3 or anti-PARVB; only the target purified. (In general: A western blot detects proteins with antibodies after separation by electrophoresis.)

These are yes or no findings as the source states them, for the method shown. Binding seen in cells or lysates may run through a third protein. Binding calls can cover weak binding; strength is not graded here.

B1: endogenous PARVB of IM2 myoblasts (protein, UniProt Q9ES46 1-365)
chain: MSSAPPRSPTPRAPKMKKDESFLGKLGGTLARKKKTREVTDLQEEGKSAINSPMAPALVDIHPEDTQLEENEERTMIDPTSREDPKFKELVKVLLDWINDVLAEERIIVKQLEEDLYDGQVLQKLLEKLAHCKLNVAEVTQSEIGQKQKLQTVLEAVQDLLRPHGWPLRWNVDSIHGKNLVAILHLLVSLAMHFRAPIHLPEHVTVQVVVVRKREGLLHSSHISEELTTTTEIMMGRFERDAFDTLFDHAPDKLNLVKKSLITFVNKHLNKLNLEVTDLETQFADGVYLVLLLGLLEDYFVPLHNFYLTPDSFDQKVHNVAFAFELMLDGGLKKPKARPEDVVNLDLKSTLRVLYTLFTKYKDVE
In the case of B1, the binding entry is “binds”.
